Values of other authors in publication PMC11242853, “The Antimicrobial Activity of Human Defensins at Physiological Non-Permeabilizing Concentrations Is Caused by the Inhibition of the Plasma Membrane H^+-ATPases” (International Journal of Molecular Sciences, 2024).
“Also recorded” adds a separate entry of the source.

Parameters: method as in 19 sources, ref 24; PMID 3290255; doi:10.1172/JCI113527; 24. Lehrer R.I. Ganz T. Szklarek D. Selsted M.E. Modulation of the in vitro candidacidal activity of human neutrophil defensins by target cell metabolism and divalent cations J. Clin. Invest. 1988 81 || [47]; PMID 11083633; doi:10.1128/AAC.44.12.3310-3316.2000; 47. Edgerton M. Koshlukova S.E. Araujo M.W. Patel R.C. Dong J. Bruenn J.A. Salivary histatin 5 and human neutrophil defensin 1 kill Candida albicans via shared pathways Antimicrob. Agents Chemother. 2 ||| ref 20 = [20]; PMID 17074797; doi:10.1128/AAC.00478-06; 20. Vylkova S. Nayyar N. Li W. Edgerton M. Human beta-defensins kill Candida albicans in an energy-dependent and salt-sensitive manner without causing membrane disruption Antimicrob. Agents Chemother. ||| ref 24, 62 (HNP-1); 62, 63 (HNP-4); 20 (hBD-2); 12, 20 (hBD-3); 34, 35, 64 cidal and 65, 66 static (lactoferrin) ||| ref 26 (HNP-1); 12 (HNP-4); 11 (hBD-2, hBD-3); 43, 67 (lactoferrin) ||| ref 14 (HNP-1); 23 (HNP-4); Yes 11, 13 / No 20 (hBD-2); No 20 / Yes 11 (hBD-3); 31, 34, 42 (lactoferrin) ||| ...
Conditions: Table 2, cited from earlier work

B1: human lactoferrin: Recombinant human apo-lactoferrin (hLf), 691 amino acid γ-core protein that inhibits microbial PM H+-ATPases; control (protein, UniProt P02788 20-710, looked up)
Lactotransferrin: GRRRSVQWCAVSQPEATKCFQWQRNMRKVRGPPVSCIKRDSPIQCIQAIAENRADAVTLDGGFIYEAGLAPYKLRPVAAEVYGTERQPRTHYYAVAVVKKGGSFQLNELQGLKSCHTGLRRTAGWNVPIGTLRPFLNWTGPPEPIEAAVARFFSASCVPGADKGQFPNLCRLCAGTGENKCAFSSQEPYFSYSGAFKCLRDGAGDVAFIRESTVFEDLSDEAERDEYELLCPDNTRKPVDKFKDCHLARVPSHAVVARSVNGKEDAIWNLLRQAQEKFGKDKSPKFQLFGSPSGQKDLLFKDSAIGFSRVPPRIDSGLYLGSGYFTAIQNLRKSEEEVAARRARVVWCAVGEQELRKCNQWSGLSEGSVTCSSASTTEDCIALVLKGEADAMSLDGGYVYTAGKCGLVPVLAENYKSQQSSDPDPNCVDRPVEGYLAVAVVRRSDTSLTWNSVKGKKSCHTAVDRTAGWNIPMGLLFNQTGSCKFDEYFSQSCAPGSDPRSNLCALCIGDEQGENKCVPNSNERYYGYTGAFRCLAENAGDVAFVKDVTVLQNTDGNNNEAWAKDLKLADFALLCLDGKRKPVTEARSCHLAMAPNHAVVSRMDKVERLKQVLLHQQAKFGRNGSDCPDKFCLFQSETKNLLFNDNTECLARLHGKTTYEKYLGPQYVAGITNLKKCSTSPLLEACEFLRK
modifications: apo form
notes: control
With B1 as the molecule, how does the Cellular target (ref 13 (hBD-2 phospholipids), 34, 35, 36 and 39 (lactoferrin)) read?
Its Cellular target is “PM (V) H^+-ATPase”.

What about the “Cell death type (yeast)” value (ref 14 (HNP-1), 23 (HNP-4), 20, 11, 13 (hBD-2), 20, 11 (hBD-3), 36, 44, 31, 42 (lactoferrin)) of the same molecule?
Its value is “Apoptosis-like cell death; also recorded: No permeabilization”.
